{"source": "paper PMC6904220", "molecules": {"B1": {"name": "HA-Fam92 (Drosophila Fam92) (protein, UniProt Q9VK91 1-395)", "chain": "MFRRGKLSFLNTKDDRVKIINERINITERHLMEMCSSFALVTRKMAKYRDSFDELAKSVKSYADDEEINESLCQGLKSFTNAVTIMGDYMDINVHRLEHKIVNELAQFEQLCKSTRDNLRLAVIARDKEVLRQRQMLELKSKFSANNSAADSELFKAKMEVQRTNKEIDDIIGNFEQRKLRDLKQIISDFILIAMKQHTKALEILSASYYDIGTIDERDDFIEFQKLMKTKEELASRKTALKKGLRSQSMDSLEHEHLVSPLKRRPKLSRSNRNLTGAGINHGSKTEPEDETDEQDEEEDDEDEETEQSGEEDEESGTATDDEREPTQPGNQVPPRENVFGAKIRSASKDIATPSTSASATSAPSKPSRQTVKHPFKAVASTHVRLQKQFHVPQH"}}, "key": {"[1]": {"target": "T1, GFP-Dzip1 (Drosophila Dzip1) (Drosophila melanogaster) (UniProt Q9VC70)", "T1 sequence": "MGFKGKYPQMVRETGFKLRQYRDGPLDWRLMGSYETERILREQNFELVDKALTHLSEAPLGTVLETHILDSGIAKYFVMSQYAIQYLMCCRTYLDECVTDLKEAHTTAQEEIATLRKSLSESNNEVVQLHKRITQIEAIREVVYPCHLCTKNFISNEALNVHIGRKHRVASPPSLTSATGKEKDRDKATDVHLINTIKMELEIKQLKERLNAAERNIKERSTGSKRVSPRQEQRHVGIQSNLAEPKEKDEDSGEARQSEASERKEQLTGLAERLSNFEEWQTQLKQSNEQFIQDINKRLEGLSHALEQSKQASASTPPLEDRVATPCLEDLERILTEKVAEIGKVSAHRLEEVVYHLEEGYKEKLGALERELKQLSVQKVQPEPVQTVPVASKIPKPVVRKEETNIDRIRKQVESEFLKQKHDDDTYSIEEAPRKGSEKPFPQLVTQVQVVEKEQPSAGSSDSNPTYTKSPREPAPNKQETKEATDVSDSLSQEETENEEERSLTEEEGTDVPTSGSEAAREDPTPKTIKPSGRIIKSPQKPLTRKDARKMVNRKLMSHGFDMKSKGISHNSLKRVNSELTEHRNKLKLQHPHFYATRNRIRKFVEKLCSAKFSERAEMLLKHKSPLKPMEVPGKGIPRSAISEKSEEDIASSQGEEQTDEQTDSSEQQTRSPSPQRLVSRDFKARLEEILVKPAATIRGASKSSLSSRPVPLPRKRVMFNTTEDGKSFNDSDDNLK", "experiment": "co-IP; GFP-Dzip1, V5-Fam92 and HA-Cby co-expressed together in mammalian cells; precipitated with anti-GFP (performed once); western blot"}, "[2]": {"target": "T2, HA-Dzip1 (Drosophila Dzip1) (Drosophila melanogaster) (UniProt Q9VC70)", "T2 sequence": "T1 sequence", "experiment": "co-IP; two tagged Drosophila proteins co-expressed in COS-7 or HEK293 cells; lysates precipitated with GFP-TRAP or HA-coupled beads, 1 or 2 hr at 4°C, NaCl 150 mM, Tris-HCl pH 7.2; western blot with GFP, HA or V5 antibodies"}, "[3]": {"target": "Cby-GFP (Drosophila Cby) (Drosophila melanogaster)", "experiment": "co-IP; two tagged Drosophila proteins co-expressed in COS-7 or HEK293 cells; lysates precipitated with GFP-TRAP or HA-coupled beads, 1 or 2 hr at 4°C, NaCl 150 mM, Tris-HCl pH 7.2; western blot with GFP, HA or V5 antibodies"}}, "note": "These are yes or no findings as the source states them, for the method shown. In cells and extracts the contact can be indirect. Binding calls can cover weak binding; strength is not graded here. Where a sequence is shown, tags or fusion partners need not be part of it."}
{"molecule": "HA-Cby (Drosophila Cby)", "values": [{"measurement": "binding", "setting": "[1]", "value": "binds"}]}
{"molecule": "Cby-GFP (Drosophila Cby)", "values": [{"measurement": "binding", "setting": "[2]", "value": "binds"}]}
{"molecule": "B1", "values": [{"measurement": "binding", "setting": "[3]", "value": "binds"}]}
